Taken from: PubChem BioAssay AID720505 (Drosophila RNAi Screening Center, 2013)
Purpose: 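Knock-downs that reduce calcium influx once internal stores are emptied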 (primary screen). Cell system: Drosophila S2R+ cells. Reagents: long dsRNA against Drosophila genes. Challenge: thapsigargin (2 µM) in calcium-free buffer to empty internal stores, then 2 mM calcium added back. Measurement: 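Stores emptied by 2 µM thapsigargin without calcium, then 2 mM calcium re-added; fluo-4 fluorescence followed by FLIPR in 384-well plates, per-well averaged endpoint, raw; two screen passes, some wells retested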. Reading the numbers: calcium signal and retest calcium signal: higher = more calcium entry after store depletion. Active means: 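About 1500 genes called as lowering calcium entry, by varying amounts, judged against per-plate control wells with STIM1 as positive and Rho1 as negative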. Meaning of the calls: active = called as lowering calcium entry; inactive = not called.
The screen tested about 20,000 reagents; this is an unselected part of those that have a named target and a result. Over the whole deposit, about 2,100 (10%) got an active call. 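Raw plate signals without normalisation; calls rest on control-based scores that were not deposited; replicate 2 separates called from uncalled poorly.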 Unmarked entries are inactive. Names joined by + are all predicted targets of the reagent. The record does not give: the amount of reagent, the time to read-out.

gene	amplicon	calcium signal, replicate 1	calcium signal, replicate 2	retest calcium signal, replicate 1	retest calcium signal, replicate 2
CG6749 (GeneID 39144)	DRSC10704	103	115		
CG14829 (GeneID 38792)	DRSC10199	81.4	33.2		
ph-p (GeneID 31181)	DRSC18820	118	123		
CG9825 (GeneID 37624)	DRSC04569	115	187		
Mlc1 (GeneID 43323)	DRSC16740	106	99.1		
dare + CG30033	DRSC22908	135	169		
Hsp26 (GeneID 39075)	DRSC11189	103	91.7		
CG13202 (GeneID 36222)	DRSC06326	99.5	155		
CG17344 (GeneID 35185)	DRSC02607	140	87.4		
Tep4 (GeneID 35248)	DRSC03453	60.3	195		
pyr (GeneID 36255)	DRSC06319	77.4	158	10064	149
pyr (GeneID 36255)	DRSC22520	88.9	70.8		
CG1288 (GeneID 40865)	DRSC12538	114	169		
CG7945 (GeneID 39679)	DRSC10934	60.8 (active)	118		
Mf (GeneID 41824)	DRSC16120	114	208		
CG18747 (GeneID 59143)	DRSC15384	142	138		
CG8369 (GeneID 50005)	DRSC16413	125	108		
Spn88Eb (GeneID 41829)	DRSC16093	108	154		
CG4650 (GeneID 34859)	DRSC02767	91.1	96.5		
Tsen2 (GeneID 318956)	DRSC01557	112	99.2		
CG18568 (GeneID 36549)	DRSC06768	184	169		
cola + swif	DRSC06826	99.7	151		
cola + swif	DRSC21965	89.3	276		
CG11980 (GeneID 41078)	DRSC14456	178	125		
Srp68 (GeneID 39028)	DRSC10475	160	98.4		
roq (GeneID 39818)	DRSC10227	158	89.7		
comm2 (GeneID 39716)	DRSC09881	109	120		
comm2 (GeneID 39716)	DRSC10877	86	121		
CG1172 (GeneID 40647)	DRSC12182	129	106		
CG1172 (GeneID 40647)	DRSC21954	99.2	227		
CG4911 (GeneID 39043)	DRSC10456	65.3 (active)	75.6		
CG17652 (GeneID 33353)	DRSC00511	184	143		
CG1792 (GeneID 43727)	DRSC15290	79.1	141		
CG15535 (GeneID 43608)	DRSC15071	147	92.5		
l(2)k05819 (GeneID 33644)	DRSC00826	140	319		
ex (GeneID 33218)	DRSC00817	84.5	212		
Pbp45 (GeneID 41920)	DRSC16509	118	149		
zf30C (GeneID 34292)	DRSC03641	106	115		
CG9691 (GeneID 31923)	DRSC18441	72.3 (active)	120		
asRNA:CR43469 + Balat	DRSC06852	222	113		
CG4586 (GeneID 31641)	DRSC18373	178	124		
CG15580 (GeneID 40743)	DRSC12266	91.3	147		
cib (GeneID 31359)	DRSC18660	225	124	8616	141
CG34334 (GeneID 5740122)	DRSC20643	160	102		
Tsp42Eq (GeneID 35628)	DRSC06180	125	132		
COX6CL (GeneID 318868)	DRSC00895	83.7	113		
link (GeneID 36509)	DRSC06368	102	150		
AdipoR (GeneID 42656)	DRSC15767	207	211		
Atet (GeneID 33636)	DRSC00263	109	104		
Fcp3C (GeneID 31294)	DRSC18665	110	154		
Vsp37A (GeneID 31006)	DRSC18794	58.6 (active)	146		
CG13024 (GeneID 39880)	DRSC09904	88.5	141		
Ptp4E (GeneID 31425)	DRSC18701	104	84.5		
CG6144 (GeneID 34443)	DRSC02934	70.6	80.2		
Vamp7 (GeneID 36015)	DRSC06599	125	213		
CG7886 (GeneID 41775)	DRSC16333	180	209		
CG13613 (GeneID 42910)	DRSC14616	225	162		
CG11170 (GeneID 37533)	DRSC04090	105	82.8		
CG8046 (GeneID 35936)	DRSC07059	126	77.3		
CG13369 (GeneID 31007)	DRSC18481	68.5	136		
mav (GeneID 43804)	DRSC17149	102	167		
Dro (GeneID 36635)	DRSC07406	124	158		
Ada (GeneID 41092)	DRSC14463	63 (active)	146		
vls (GeneID 35289)	DRSC02101	111	133		
CG30412 (GeneID 37691)	DRSC04564	61.8	180	98.7	102
hook (GeneID 35169)	DRSC03545	101	112		
moody (GeneID 31168)	DRSC18515	83.8	141		
CG10417 (GeneID 35492)	DRSC04846	142	110		
Had2 (GeneID 36624)	DRSC05971	189	189		
CG2157 (GeneID 32018)	DRSC19836	73.5	97.7		
CG6761 (GeneID 39134)	DRSC10705	154	149		
CG30184 (GeneID 246506)	DRSC22277	115	244		
CG8915 (GeneID 32715)	DRSC20119	121	102		
gol (GeneID 38006)	DRSC04689	86.9	80.2		
CG2614 (GeneID 35326)	DRSC02711	76	105		
elfless (GeneID 35076)	DRSC02451	92.9	111		
CG7747 (GeneID 36820)	DRSC07038	164	98.8		
CG42710 (GeneID 10178945)	DRSC01034	156	110		
CG7276 (GeneID 39668)	DRSC10797	70.8	111		
CG3907 (GeneID 37832)	DRSC04432	104	161		
CG1233 (GeneID 38063)	DRSC08269	138	81.8		
CG42671 (GeneID 39268)	DRSC09093	87.7	123		
CG42671 (GeneID 39268)	DRSC10321	91.8	117		
